One data set deals with GST-SP1 (UniProt P08047). The data set can be described thus: ELONA. The note with it: recombinant protein, protein details: GST (N-terminal, pGEX2T), label: 5' biotin for ELONA, folded or branched DNA.
For another data set, the target named is GST tag (UniProt P08515). Briefly: ELONA. The note with it: label: 5' biotin for ELONA; folded or branched DNA.

Amino acid sequences for entries named in this document (tags omitted). A change or cut given only in a name is not applied to a line headed by its entry.
UniProt P08047: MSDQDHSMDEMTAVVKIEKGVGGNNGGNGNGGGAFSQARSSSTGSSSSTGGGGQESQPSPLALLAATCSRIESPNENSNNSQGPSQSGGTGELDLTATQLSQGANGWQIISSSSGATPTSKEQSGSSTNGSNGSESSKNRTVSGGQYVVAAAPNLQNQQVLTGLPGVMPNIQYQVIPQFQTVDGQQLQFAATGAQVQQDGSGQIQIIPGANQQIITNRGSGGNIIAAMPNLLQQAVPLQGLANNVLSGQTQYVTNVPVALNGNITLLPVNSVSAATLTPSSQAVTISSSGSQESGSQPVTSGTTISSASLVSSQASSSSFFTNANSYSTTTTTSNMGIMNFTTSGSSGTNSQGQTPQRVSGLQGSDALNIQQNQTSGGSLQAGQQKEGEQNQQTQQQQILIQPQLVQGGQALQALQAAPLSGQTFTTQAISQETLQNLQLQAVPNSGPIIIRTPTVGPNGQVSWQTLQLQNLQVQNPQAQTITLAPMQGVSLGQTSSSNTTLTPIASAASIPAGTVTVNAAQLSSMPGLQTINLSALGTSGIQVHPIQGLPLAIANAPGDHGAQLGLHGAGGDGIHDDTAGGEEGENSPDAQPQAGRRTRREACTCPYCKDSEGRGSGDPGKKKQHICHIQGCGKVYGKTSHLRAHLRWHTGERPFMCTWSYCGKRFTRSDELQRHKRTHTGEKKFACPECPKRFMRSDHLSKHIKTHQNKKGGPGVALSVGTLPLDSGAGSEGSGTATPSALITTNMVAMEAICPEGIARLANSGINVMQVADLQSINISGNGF
UniProt P08515, whole entry: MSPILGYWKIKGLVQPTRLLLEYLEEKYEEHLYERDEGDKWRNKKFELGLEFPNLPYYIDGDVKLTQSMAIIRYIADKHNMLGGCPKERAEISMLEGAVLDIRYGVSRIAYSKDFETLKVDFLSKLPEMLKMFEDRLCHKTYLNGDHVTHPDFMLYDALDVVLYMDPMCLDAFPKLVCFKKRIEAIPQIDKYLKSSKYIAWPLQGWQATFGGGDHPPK

Construct, isoform or probe ends are uncertain for at least one entry. For some assays here: A negative result means that nothing was seen under these conditions. At least one verdict rests on a figure or table, not on a statement of the authors. For some assays here: The comparison behind a weaker result is the experiment's own reference, which may not be listed here.

As to “CGGGCGCGGGAGGAAGGGGGCGGGAGC [BCL-2 G4 unmethylated]”, the binding result with GST-SP1 (folded in 100 mM K+) is listed as “binds”; with GST-SP1 (folded in 100 mM Li+), “binds more weakly”.

For the sequence “GGGGCGGGCCGGGGGCGGGG [VEGF G4 unmethylated]”, the binding result in the data set with GST-SP1 (folded in 100 mM K+) is “binds”; with GST-SP1 (folded in 100 mM Li+), “binds more weakly”; with GST tag, “no binding”.

With “GGCGAGGAGGGGCGTGGCCGGC [c-KIT G4 unmethylated]”, the binding result in the data set with GST-SP1 (folded in 100 mM K+) is “binds”; with GST-SP1 (folded in 100 mM Li+), “binds more weakly”.

Consider “TCGGGTTGCGGGCGCAGGGCACGGGCG [HRAS1 G4 unmethylated]”, for which the binding result with GST-SP1 (folded in 100 mM K+) is reported as “binds”; with GST-SP1 (folded in 100 mM Li+), “binds more weakly”.

Take “CGGGGCGGGGCGGGGGCGGGGGCG [HRAS2 G4 unmethylated]”: the results for the binding result in the data set with GST-SP1 (folded in 100 mM K+) and in the data set with GST-SP1 (folded in 100 mM Li+) were “binds” and “binds more weakly”, respectively.

The values above are taken from paper PMC6017926.
